# Test results as given in PubChem BioAssay AID485314 (National Center for Advancing Translational Sciences (NCATS), 2010).
# Hit rate of the full screen: of about 340,000 compounds, about 4,500 (1.3%) were called active. This list was built around the results that the source calls inconclusive (neither active nor inactive); the mix of calls is not that of the screen. Calls follow the shape of the dose curve; as a rule, active = well fitted inhibition curve with a large enough effect; inconclusive = small, poorly fitted or top-dose-only effect, or another doubt; inactive = no such curve, though single readings can be large or run the other way. Potencies of inconclusive entries are doubtful fits and often do not repeat.
# Molecular target: DNA polymerase beta (Homo sapiens) (UniProt P06746)
# Assay: qHTS Assay for Inhibitors of DNA Polymerase Beta
# Conditions: Pol beta primer extension/strand displacement, fluorescence kinetic; activity change, negative = inhibition: at 114 µM (top of the series)
# Outline: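 Enzyme-only controls used 10 nM Pol beta; buffer lacking enzyme served as negative control. Compound preincubated 15 min, then 50 nM substrate added; 0 and 10 min reads at room temperature.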
# % is scaled to controls: 0 for no effect and ±100 for the full control effect; potency is read from the fitted curve at half-maximal effect.
SMILES,Potency,"activity change, negative = inhibition"
O=C(COC(=O)c1ccc(Cl)nc1)Nc1ncc(Cl)cc1Cl,"inconclusive: 28.2 µM [inhibitor, partial curve]",–
O=C(O)c1ccc(Nc2nc(-c3ccc([N+](=O)[O-])cc3)nc3ccccc23)cc1,active: 56.2 µM,–
CS(=O)(=O)N(CC(=O)Nc1cc(Cl)ccc1Cl)c1ccccc1Cl,"inconclusive: 0.141 µM [inhibitor, full curve, poor fit]",–
C[C@@H](C(=O)Nc1nc(-c2ccccn2)cs1)N1C(=O)C2CCCCC2C1=O (some centres undefined),active: 12.6 µM,–
NS(=O)(=O)c1ccc(NC(=O)COC(=O)CCNC(=O)NC23CC4CC(CC(C4)C2)C3)cc1,"inconclusive: 100 µM [inhibitor, single point]",–
O=C(OCc1ccccc1F)c1ccc2c(c1)OCCO2,"inconclusive: 0.631 µM [inhibitor, full curve, poor fit]",–
COc1cccc(C(=O)c2cn(CC(=O)NCc3ccccc3Cl)c3nc(C)ccc3c2=O)c1,"inconclusive: 1 µM [inhibitor, full curve, poor fit]",–
Cc1nn(C(C)C(=O)NCc2cccs2)c(C)c1[N+](=O)[O-] (centres undefined),"inconclusive: 0.891 µM [inhibitor, full curve, poor fit]",–
S=c1[nH]nc(-c2ccccn2)n1/N=C/c1ccc(-c2ccccc2Cl)o1,active: 22.4 µM,–
COc1ccc(-c2cc(C)no2)cc1S(=O)(=O)NCc1cccs1,–,inactive: -3.66%
CN1N=C(C(=O)N2CCCC(N3CCN(c4ccc(F)cc4)CC3)C2)CCC1=O (centres undefined),"inconclusive: 3.98 µM [inhibitor, single point]",–
COC(=O)c1c(NC(=O)Cc2coc3cc(C)ccc23)sc2c1CCCC2,–,inactive: 30.5%
COC(=O)c1ccc(C2c3c(-c4ccccc4O)n[nH]c3C(=O)N2Cc2ccncc2)cc1 (centres undefined),–,inactive: 0.58%
Cn1c(SCC(=O)Nc2ccc(N3CCOCC3)cc2)nnc1-c1ccccc1,"inconclusive: 79.4 µM [inhibitor, single point]",–
Cc1ccc(S(=O)(=O)Nc2ccccc2C(O)c2ccccc2)cc1 (centres undefined),–,inactive: 2.12%
CN(C)/C=C1\SC(=S)N(c2ccc(Br)cc2)C1=O,–,inconclusive: -171% [inhibitor]
COc1ccc2cc(C(=O)C3CCCN(C(=O)c4cnn(C(C)C)c4)C3)ccc2c1 (centres undefined),–,inconclusive: -33.9% [inhibitor]
COC(=O)C1=C(C(=O)OC)[C@@H]2N(C)c3ccccc3[C@@]23C[C@@H](CO)N(C(=O)NCCBr)C3=N1,"inconclusive: 89.1 µM [inhibitor, single point]",–
CCOc1cc(C(=O)OCC(=O)NCc2ccco2)cc(OCC)c1OCC,active: 17.8 µM,–
C=C(C)COc1ccc2c(C)c(C)c(=O)oc2c1OCC(=C)C,"inconclusive: 89.1 µM [inhibitor, single point]",–
Cc1ccc(CNC(=O)C2CCCN(C(=O)Nc3ccc(F)cc3)C2)cc1 (centres undefined),"inconclusive: 28.2 µM [inhibitor, full curve]",–
CCCOc1ccc(C(=O)Nc2ccc(NC(=O)c3ccccc3)c(Br)c2)cc1,–,inactive: 13.9%
CCOc1ccc(CN2CCN(Cc3cc4ccccc4[nH]3)CC2CCO)cc1 (centres undefined),"inconclusive: 2.51 µM [inhibitor, full curve]",–

SMILES,Potency,"activity change, negative = inhibition"
NC(=O)c1cc(NC(=O)c2cc(Br)c(Br)s2)cc(C(N)=O)c1,active: 39.8 µM,–
O=C(CNS(=O)(=O)c1c(Cl)cccc1Cl)OCC(=O)c1ccc[nH]1,"inconclusive: 14.1 µM [inhibitor, full curve, poor fit]",–
O=C(OC1CCN(c2ccc([N+](=O)[O-])cc2)CC1)c1ccccc1,"inconclusive: 0.316 µM [inhibitor, full curve, poor fit]",–
COc1ccc(-c2nnc(Nc3ccc(S(=O)(=O)Nc4nccs4)cc3)c3ccccc23)cc1,active: 1.78 µM,–
CCOC(=O)c1[nH]c(C)c(C(=O)NC(CC)Cc2ccccc2)c1C (centres undefined),–,inactive: 5.21%
Cn1c(-n2cccc2)c(-c2c(-c3ccccc3)[nH]c3c2c(=O)[nH]c(=O)n3C)c(=O)[nH]c1=O,active: 15.8 µM,–
Cc1nnc(N2C(=O)c3cccc4c([N+](=O)[O-])ccc(c34)C2=O)s1,"inconclusive: 31.6 µM [inhibitor, partial curve]",–
COc1cccc2c1CCC(NC(C)=O)C2=O (centres undefined),"inconclusive: 89.1 µM [inhibitor, single point]",–
Cc1ccc(CNC(=O)CSc2nnc3c(n2)[nH]c2ccc(F)cc23)cc1,"inconclusive: 28.2 µM [inhibitor, full curve]",–
C#CCn1c(=NC(=O)c2cccs2)sc2cccc(OC)c21,active: 20 µM,–
CC(=O)Nc1ccc(S(=O)(=O)NC(=O)C23CC4CC(CC(C4)C2)C3)cc1,"inconclusive: 35.5 µM [inhibitor, single point]",–
CN(C)S(=O)(=O)c1cccc(NC(=O)COC(=O)/C=C/c2ccc(Br)o2)c1,"inconclusive: 11.2 µM [inhibitor, full curve]",–
CCOc1ccc(S(=O)(=O)NCC(c2ccco2)S(=O)(=O)c2ccc(F)cc2)cc1 (centres undefined),–,inactive: 13%
CCOC(=O)N/N=C/c1cc(OC)c(O)c(OC)c1,"inconclusive: 100 µM [inhibitor, single point]",–
O=C(NCCc1ccccc1)c1ccc(CSc2nc3ccncc3n2Cc2ccc(F)cc2)cc1,–,inactive: 12.6%
O=C(O)c1cc(S(=O)(=O)NCc2ccco2)c(Cl)cc1Cl,"inconclusive: 31.6 µM [inhibitor, full curve]",–
O=C(CN1C(=O)COc2ccc(S(=O)(=O)N3CCOCC3)cc21)N1CCN(c2ccc(F)cc2)CC1,–,inactive: 19.7%
Cc1cc2ccccc2c(=O)n1CC(=O)N(C)c1ccc(F)cc1,–,inactive: 5.41%
NC(=O)[C@@H]1CC2(CC(c3cccc(NC(=O)[C@H]4CCC(=O)N4)c3)=NO2)CN1C(=O)c1ccc(Cl)cc1 (some centres undefined),–,inactive: -15.8%
Cc1ccc(S(=O)(=O)C2(C(=O)NC3CCCC3)CC2)cc1,"inconclusive: 35.5 µM [inhibitor, single point]",–
O=c1c(Cl)c(Cl)cnn1Cc1nnc(-c2ccc(Cl)cc2)o1,active: 39.8 µM,–
Cn1c(=O)c(NCCc2ccccc2)c2c3c(cccc31)C(=O)c1ccccc1-2,active: 14.1 µM,–
O=C1c2cccc3cccc(c23)C(=O)N1CCN1CCN(CC(O)COCc2ccc(Cl)cc2)CC1 (centres undefined),"inconclusive: 35.5 µM [inhibitor, full curve, poor fit]",–

SMILES,Potency,"activity change, negative = inhibition"
COc1ccc(S(=O)(=O)Nc2cc(C)nn2-c2ccccc2)cc1,"inconclusive: 5.01 µM [inhibitor, single point]",–
COc1cccc(-c2[nH]nc3c2C(c2ccoc2)C(C#N)=C(N)O3)c1 (centres undefined),active: 35.5 µM,–
O=C(O)c1cc(-c2ccc(/C=N/NC(=S)Nc3ccccc3)o2)ccc1Cl,active: 28.2 µM,–
Cc1ccc(C)c(N2CCN(C3=C(c4ccccc4)C(=O)c4ccccc43)CC2)c1,–,inactive: -0.562%
Cc1ccc(Cl)cc1NC(=O)Cn1c(=O)n(Cc2ccc(C(=O)NCc3ccc4c(c3)OCO4)cc2)c(=O)c2ccccc21,"inconclusive: 10 µM [inhibitor, partial curve, poor fit]",–
CC(CCc1ccccc1)NC(=O)Cc1cccs1 (centres undefined),"inconclusive: 8.91 µM [inhibitor, partial curve]",–
O=C(COc1ncnc2ccccc12)NCCc1ccc(F)cc1,"inconclusive: 39.8 µM [inhibitor, single point]",–
Cc1nnc(SC(C)C)n(N)c1=O,"inconclusive: 89.1 µM [inhibitor, single point]",–
CCC(=O)Nc1ccc2nc(SCCOc3ccc(C)cc3)sc2c1,–,inactive: -21.5%
CN(C)/C=C/C=C1C(=O)CCCC1=O,active: 20 µM,–
COCCNC(=O)CC(=O)N/N=C/c1ccc(C(=O)OC)cc1,"inconclusive: 0.631 µM [inhibitor, full curve, poor fit]",–
O=C(Nc1ccccc1)C1=C[C@H](C2CCCCC2)C[C@H](OCc2ccc(CO)cc2)O1,"inconclusive: 70.8 µM [inhibitor, partial curve]",–
Cc1ccc(Cn2c(SCC(=O)C(C)(C)C)nc3ccsc3c2=O)cc1,–,inactive: 4.42%
COc1ccc([N+](=O)[O-])cc1NC(=S)NC(C)=O,–,inactive: 7.8%
O=C(Nc1ccc(O)cc1)c1ccc2c(c1)C(=O)N(N1C(=O)c3ccccc3C1=O)C2=O,"inconclusive: 79.4 µM [inhibitor, single point]",–
COC(=O)c1ccc(NC(=O)CCC(=O)c2ccc(F)cc2)cc1,–,inactive: 4.18%
Cc1ccc(C(C(=O)NCC2CCCO2)N(C(=O)c2snc(C(N)=O)c2N)c2ccc(C(C)C)cc2)o1 (centres undefined),"inconclusive: 3.98 µM [inhibitor, full curve, poor fit]",–
CC1Cc2ccccc2N1S(=O)(=O)c1cccc(C(=O)N2CC(=O)Nc3ccccc32)c1 (centres undefined),active: 39.8 µM,–
COC(=O)c1cnc(Nc2ccc(Cl)cc2)c([N+](=O)[O-])c1,"inconclusive: 79.4 µM [inhibitor, single point]",–
CCn1cc(C(=O)NCc2ccc3c(c2)OCO3)c(=O)c2cc(F)c(N3CCN(C(=O)c4ccco4)CC3)cc21,"inconclusive: 100 µM [inhibitor, partial curve, poor fit]",–
COc1ccc(NC(=O)c2c(C)oc3ccc(O)c(CN4CCCCCC4)c23)cc1Cl,–,inactive: -15.6%
Nc1cc(=O)[nH]c(SCC(=O)Nc2ccc3c(c2)CCC3)n1,"inconclusive: 79.4 µM [inhibitor, single point]",–
O=[N+]([O-])c1ccc(Cl)cc1CNc1ccc(F)c(F)c1,"inconclusive: 89.1 µM [inhibitor, single point]",–

# Reformatted with tabs: part of the list above.
SMILES	Potency	activity change, negative = inhibition
S=c1[nH]nc(-c2ccccn2)n1/N=C/c1ccc(-c2ccccc2Cl)o1	active: 22.4 µM	–
CCOc1ccc(CN2CCN(Cc3cc4ccccc4[nH]3)CC2CCO)cc1 (centres undefined)	inconclusive: 2.51 µM [inhibitor, full curve]	–
NC(=O)c1cc(NC(=O)c2cc(Br)c(Br)s2)cc(C(N)=O)c1	active: 39.8 µM	–
Cc1ccc(C(C(=O)NCC2CCCO2)N(C(=O)c2snc(C(N)=O)c2N)c2ccc(C(C)C)cc2)o1 (centres undefined)	inconclusive: 3.98 µM [inhibitor, full curve, poor fit]	–
